Chains of the proteins cited; added tags and fusions are not shown. Lines headed by an entry give the natural chain unless they say otherwise; changes in a name come on top.
UniProt P19490: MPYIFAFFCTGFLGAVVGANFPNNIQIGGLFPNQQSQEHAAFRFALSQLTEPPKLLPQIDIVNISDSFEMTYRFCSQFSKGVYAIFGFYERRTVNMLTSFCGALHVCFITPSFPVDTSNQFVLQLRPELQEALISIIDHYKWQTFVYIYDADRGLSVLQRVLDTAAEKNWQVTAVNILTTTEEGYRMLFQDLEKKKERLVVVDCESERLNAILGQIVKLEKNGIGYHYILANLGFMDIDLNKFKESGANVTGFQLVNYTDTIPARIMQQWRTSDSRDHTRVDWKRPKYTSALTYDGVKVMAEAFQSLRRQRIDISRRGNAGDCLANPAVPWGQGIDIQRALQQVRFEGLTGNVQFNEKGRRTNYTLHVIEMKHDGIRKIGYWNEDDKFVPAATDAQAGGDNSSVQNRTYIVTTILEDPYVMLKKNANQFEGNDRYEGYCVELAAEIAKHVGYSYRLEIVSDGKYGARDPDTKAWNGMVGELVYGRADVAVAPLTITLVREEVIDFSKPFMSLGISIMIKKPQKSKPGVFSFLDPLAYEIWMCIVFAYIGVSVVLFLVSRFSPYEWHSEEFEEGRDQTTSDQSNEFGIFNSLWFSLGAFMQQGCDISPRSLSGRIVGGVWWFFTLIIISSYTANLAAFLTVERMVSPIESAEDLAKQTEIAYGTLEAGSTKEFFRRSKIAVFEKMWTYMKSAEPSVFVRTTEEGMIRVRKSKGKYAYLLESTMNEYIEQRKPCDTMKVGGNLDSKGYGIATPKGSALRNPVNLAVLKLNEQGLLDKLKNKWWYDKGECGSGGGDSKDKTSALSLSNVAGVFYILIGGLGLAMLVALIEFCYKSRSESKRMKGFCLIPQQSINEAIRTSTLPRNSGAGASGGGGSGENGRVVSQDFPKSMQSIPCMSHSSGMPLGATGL
UniProt P46462: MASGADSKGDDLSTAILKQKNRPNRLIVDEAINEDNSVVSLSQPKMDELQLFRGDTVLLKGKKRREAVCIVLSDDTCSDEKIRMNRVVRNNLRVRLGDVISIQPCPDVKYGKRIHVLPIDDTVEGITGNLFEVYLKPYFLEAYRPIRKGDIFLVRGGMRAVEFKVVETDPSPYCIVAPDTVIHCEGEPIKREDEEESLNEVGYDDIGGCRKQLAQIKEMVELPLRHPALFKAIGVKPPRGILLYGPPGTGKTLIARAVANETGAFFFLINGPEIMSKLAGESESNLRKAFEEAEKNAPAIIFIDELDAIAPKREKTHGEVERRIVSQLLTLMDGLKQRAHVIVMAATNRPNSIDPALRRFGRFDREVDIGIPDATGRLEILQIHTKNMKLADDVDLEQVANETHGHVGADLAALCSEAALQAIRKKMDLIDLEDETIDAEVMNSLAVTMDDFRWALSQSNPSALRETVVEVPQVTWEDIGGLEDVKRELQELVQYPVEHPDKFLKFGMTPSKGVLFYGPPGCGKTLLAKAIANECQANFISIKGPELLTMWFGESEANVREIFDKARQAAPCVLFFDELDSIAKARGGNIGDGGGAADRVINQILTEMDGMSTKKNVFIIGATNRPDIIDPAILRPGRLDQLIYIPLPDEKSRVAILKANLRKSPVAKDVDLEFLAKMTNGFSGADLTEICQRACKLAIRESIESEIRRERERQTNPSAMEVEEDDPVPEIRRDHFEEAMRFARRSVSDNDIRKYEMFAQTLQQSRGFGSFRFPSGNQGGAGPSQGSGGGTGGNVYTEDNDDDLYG

In paper PMC6733861:

Target: GluA1Δ510-541 (UniProt P19490)
Test: co-IP; COS7 cells co-transfected with p97 and HA-GluA1, HA-GluA2 or a GluA1 deletion or swap construct; RIPA lysate; IP with anti-GluA1, anti-GluA2 or anti-HA; blot for p97; also after DBeQ (0, 0.1, 1, 10, 50 μM; 30 min) on the cells

binding: binds
Substance: p97 expressed in mammalian cells (pcDNA3.1) (from UniProt P46462 1-806)

These are yes or no findings as the source states them, for the method shown. Binding seen in cells or lysates may run through a third protein. Binding can be weak; no strength is given.
